Data published in publication PMC12002053.
These are yes or no findings as the source states them, for the method shown. Binding seen in cells or lysates may run through a third protein. Some results given as binding are weak or reduced against the parent protein; the word gives no strength.

By UniProt entry, the sequences of proteins in these tests, tags left out.
UniProt P62633: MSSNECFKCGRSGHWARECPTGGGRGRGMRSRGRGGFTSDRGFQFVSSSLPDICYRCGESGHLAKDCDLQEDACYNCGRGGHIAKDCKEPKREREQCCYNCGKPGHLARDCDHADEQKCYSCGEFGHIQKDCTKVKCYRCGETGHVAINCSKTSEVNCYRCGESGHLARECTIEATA

Tests used:
[1] = biological target: T1, endogenous KIF1C of MDA-MB-231 cells (human (endogenous in MDA-MB-231)) (UniProt O43896); assay: co-IP; endogenous KIF1C immunoprecipitated with anti-KIF1C (Bethyl A301-070A) on Protein G Dynabeads from control (pCrispr) cell lysate; 10mM Tris-Cl pH 7.4, 100mM NaCl, 2.5mM MgCl2, 0.5% Triton X-100; 1.5 h at 4°C; CNBP blot
T1 sequence: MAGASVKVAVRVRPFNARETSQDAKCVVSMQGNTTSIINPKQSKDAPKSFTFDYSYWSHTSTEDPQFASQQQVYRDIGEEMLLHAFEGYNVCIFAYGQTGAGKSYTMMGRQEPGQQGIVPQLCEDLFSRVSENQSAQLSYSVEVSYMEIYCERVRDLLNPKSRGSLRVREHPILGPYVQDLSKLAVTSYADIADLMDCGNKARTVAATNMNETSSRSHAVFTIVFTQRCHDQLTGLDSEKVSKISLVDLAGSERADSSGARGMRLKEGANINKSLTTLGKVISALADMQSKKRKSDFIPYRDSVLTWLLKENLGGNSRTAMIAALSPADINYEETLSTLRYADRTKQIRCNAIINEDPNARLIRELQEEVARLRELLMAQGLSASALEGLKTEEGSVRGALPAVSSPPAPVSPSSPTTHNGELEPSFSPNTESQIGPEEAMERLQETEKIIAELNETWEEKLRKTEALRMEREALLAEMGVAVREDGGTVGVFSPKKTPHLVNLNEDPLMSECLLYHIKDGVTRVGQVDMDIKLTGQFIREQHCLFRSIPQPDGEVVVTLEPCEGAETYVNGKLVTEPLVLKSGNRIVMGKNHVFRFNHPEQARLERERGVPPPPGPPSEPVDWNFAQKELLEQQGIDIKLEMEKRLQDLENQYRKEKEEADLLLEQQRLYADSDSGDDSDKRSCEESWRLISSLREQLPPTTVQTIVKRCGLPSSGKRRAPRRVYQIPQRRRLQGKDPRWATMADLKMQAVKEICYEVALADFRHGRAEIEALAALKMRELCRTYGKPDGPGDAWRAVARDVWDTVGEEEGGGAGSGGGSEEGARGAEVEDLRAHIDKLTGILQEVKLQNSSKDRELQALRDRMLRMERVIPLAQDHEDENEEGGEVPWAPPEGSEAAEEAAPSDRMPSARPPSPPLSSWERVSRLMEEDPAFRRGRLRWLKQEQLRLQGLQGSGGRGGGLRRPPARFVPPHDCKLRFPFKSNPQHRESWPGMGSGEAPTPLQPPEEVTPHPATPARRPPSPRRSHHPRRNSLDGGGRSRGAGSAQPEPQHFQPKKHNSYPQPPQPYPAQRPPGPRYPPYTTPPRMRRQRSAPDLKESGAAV

[2] = biological target: T1, endogenous KIF1C of MDA-MB-231 cells (human (endogenous in MDA-MB-231)); assay: proximity ligation; DuoLink In Situ Red PLA with rabbit anti-KIF1C and mouse anti-CNBP on fixed, permeabilised MDA-MB-231 cells (pCrispr or siCtrl controls; signal reduced in CNBP-knockout cells or upon KIF1C knockdown)

For “endogenous CNBP of MDA-MB-231 cells (from UniProt P62633 1-177)”, the binding [1] was “binds weakly” and the binding [2] was “binds”.
